In this assay the target is TbPH1-V5 (Trypanosoma brucei) (UniProt Q582W2). The experiment in a line: affinity purification with mass spectrometry.

Protein sequences, listed by entry. Tags and fused reporters are not part of them. Lines headed by an entry give the natural chain unless they say otherwise; changes in a name come on top.
UniProt Q38CW6: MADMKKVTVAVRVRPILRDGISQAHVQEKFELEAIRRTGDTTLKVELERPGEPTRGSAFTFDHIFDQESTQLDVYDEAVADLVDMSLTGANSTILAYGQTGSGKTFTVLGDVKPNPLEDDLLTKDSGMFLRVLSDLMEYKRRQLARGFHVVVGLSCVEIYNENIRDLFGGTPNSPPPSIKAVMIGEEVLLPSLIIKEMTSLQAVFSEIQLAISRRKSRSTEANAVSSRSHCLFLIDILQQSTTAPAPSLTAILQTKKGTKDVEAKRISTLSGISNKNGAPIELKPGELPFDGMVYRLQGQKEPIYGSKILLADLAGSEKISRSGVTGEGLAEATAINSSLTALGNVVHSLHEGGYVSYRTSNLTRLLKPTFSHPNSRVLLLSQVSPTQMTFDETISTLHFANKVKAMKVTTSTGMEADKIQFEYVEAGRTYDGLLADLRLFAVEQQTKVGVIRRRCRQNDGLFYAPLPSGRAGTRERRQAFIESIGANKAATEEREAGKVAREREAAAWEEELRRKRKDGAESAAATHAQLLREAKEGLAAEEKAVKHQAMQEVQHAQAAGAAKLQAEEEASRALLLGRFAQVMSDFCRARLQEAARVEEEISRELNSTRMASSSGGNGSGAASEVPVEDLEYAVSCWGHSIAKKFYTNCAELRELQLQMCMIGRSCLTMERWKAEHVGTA

These are yes or no findings as the source states them, for the method shown. In cells and extracts the contact can be indirect. Here binding means that the protein was enriched with, or labelled near, the bait; the list need not be complete.

For the substance TbKifX2A (from UniProt Q38CW6), the binding entry is “binds”.
